Results from the supplement of paper PMC8007513.
The list shows a part of the results. Most values come without repeats; read them as rough.

Tested on: Saccharomyces cerevisiae BY4743
Assay: growth (OD600) with compound + IPBC relative to untreated control; higher = less growth inhibition
Conditions: compound concentration: 133 uM; IPBC concentration: 0.5 ug/ml; 20 h
Method: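 NMCCC compounds (133 uM) combined with IPBC (0.5 ug/ml) against Saccharomyces cerevisiae BY4743 in YPD, 96-well plates. Growth was read as OD600 at 20 h and expressed as % of the untreated control. Single pass.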

Which growth does the source give for Cc1ccc(CNS(=O)(=O)c2ccc3c(c2)C(C)(C)C(=O)N3)cc1 + CCCCNC(=O)OCC#CI [3-iodo-2-propynyl butylcarbamate (IPBC)] here?
Its growth is 107%.

For CCc1cc2c(SC(C(N)=O)c3ccc(F)cc3)ncnc2s1 (configuration not stated) + CCCCNC(=O)OCC#CI [3-iodo-2-propynyl butylcarbamate (IPBC)], which growth is on record?
The growth was 94.9%.

For Cc1cc(C)c(S(=O)(=O)N2CCCCC2)cc1N(C)S(=O)(=O)c1ccc(Cl)cc1 + CCCCNC(=O)OCC#CI [3-iodo-2-propynyl butylcarbamate (IPBC)], which growth is on record?
Its growth is 103%.

For CCOC(=O)C1CCN(C(=O)c2cc(-c3cccnc3)on2)CC1 + CCCCNC(=O)OCC#CI [3-iodo-2-propynyl butylcarbamate (IPBC)], which growth is on record?
Its growth is 74.6%.

For Cc1ccc(-c2n[nH]c(SCC(=O)NC3(C#N)CCCC3)n2)cc1 + CCCCNC(=O)OCC#CI [3-iodo-2-propynyl butylcarbamate (IPBC)], which growth is on record?
Its growth is 98.9%.

Cc1cc(N2CCN(CC(=O)N(C)C)CC2)n2nc(C(F)(F)F)nc2n1 + CCCCNC(=O)OCC#CI [3-iodo-2-propynyl butylcarbamate (IPBC)] was tested. Which growth did it give?
Its growth is 112%.

Which growth does the source give for Cc1noc(C)c1CSCC(=O)OCC(=O)N1CCN(c2ccccc2)CC1 + CCCCNC(=O)OCC#CI [3-iodo-2-propynyl butylcarbamate (IPBC)] here?
Its growth is 109%.

Which growth does the source give for CCOC(=O)c1c(-c2ccccc2)csc1NC(=O)CCSc1nnc(C)s1 + CCCCNC(=O)OCC#CI [3-iodo-2-propynyl butylcarbamate (IPBC)] here?
The growth was 82.6%.

With O=C(CCc1nnc(-c2ccccc2)o1)Nc1ccccc1OC(F)F + CCCCNC(=O)OCC#CI [3-iodo-2-propynyl butylcarbamate (IPBC)] as the compound, how does the growth read?
The growth was 100%.

NC(=O)c1cc(Cl)ccc1OCC(=O)Nc1ccccc1Cc1ccccc1 + CCCCNC(=O)OCC#CI [3-iodo-2-propynyl butylcarbamate (IPBC)] was tested. Which growth did it give?
The growth was 99%.

For COC1(C(=O)C(=O)Nc2ccccc2Cl)NC(C)(C)Cc2ccccc21 (configuration not stated) + CCCCNC(=O)OCC#CI [3-iodo-2-propynyl butylcarbamate (IPBC)], which growth is on record?
Its growth is 71.6%.

N#Cc1ccc(CCC(=O)OCc2nnnn2-c2ccccc2)cc1 + CCCCNC(=O)OCC#CI [3-iodo-2-propynyl butylcarbamate (IPBC)] was tested. Which growth did it give?
The growth was 101%.

COC(=O)c1ccn(CC(=O)Nc2ccc(C)cc2C)n1 + CCCCNC(=O)OCC#CI [3-iodo-2-propynyl butylcarbamate (IPBC)] was tested. Which growth did it give?
Its growth is 87.5%.

Which growth does the source give for COc1ccccc1OCCn1c(=O)oc2ccc(C)cc21 + CCCCNC(=O)OCC#CI [3-iodo-2-propynyl butylcarbamate (IPBC)] here?
The growth was 99.6%.

Which growth does the source give for CCCCC(=O)Nc1cc(O)nc2nc(-c3ccc(Cl)cc3)nn12 + CCCCNC(=O)OCC#CI [3-iodo-2-propynyl butylcarbamate (IPBC)] here?
Its growth is 86.5%.

Nc1nc(SCc2c(Cl)cccc2Cl)c2[nH]cnc2n1 + CCCCNC(=O)OCC#CI [3-iodo-2-propynyl butylcarbamate (IPBC)] was tested. Which growth did it give?
The growth was 102%.

With Cc1ccccc1N(C)C(=O)c1cccc2c1SCCC2=O + CCCCNC(=O)OCC#CI [3-iodo-2-propynyl butylcarbamate (IPBC)] as the compound, how does the growth read?
Its growth is 104%.

Brc1nnnn1-c1ccc2c(c1)OCCO2 + CCCCNC(=O)OCC#CI [3-iodo-2-propynyl butylcarbamate (IPBC)] was tested. Which growth did it give?
The growth was 87.6%.

With CCC(C)(CNC(=O)c1cc(Br)c(Br)s1)N1CCOCC1 (configuration not stated) + CCCCNC(=O)OCC#CI [3-iodo-2-propynyl butylcarbamate (IPBC)] as the compound, how does the growth read?
Its growth is 114%.

CC(C)(C)C(O)CN\1C2=CC=CC=C2N3CC/N=C13 (configuration not stated) + CCCCNC(=O)OCC#CI [3-iodo-2-propynyl butylcarbamate (IPBC)] was tested. Which growth did it give?
Its growth is 98.4%.

Cc1nc2ccccc2nc1NCc1ccnc(OCC(F)(F)F)c1 + CCCCNC(=O)OCC#CI [3-iodo-2-propynyl butylcarbamate (IPBC)] was tested. Which growth did it give?
The growth was 22.2%.

For CCN(CC)CCS\C1=N\C(=C/C(=O)N1C2=CC=CC=C2C)O + CCCCNC(=O)OCC#CI [3-iodo-2-propynyl butylcarbamate (IPBC)], which growth is on record?
Its growth is 96.5%.
